# Measurements from US11723947B2, “Anti-senescence compounds and uses thereof” (Erasmus University Medical Center Rotterdam, priority 2015, dated 2023).
# Part of at least one peptide drawing is inferred or uncertain, most often the ends. Some entries repeat one wording, which the source may state once for all of them. Square brackets hold non-standard residues; d marks the D form. Ends that are not written are not given here.
# Experiments:
# [1] = system: Doxorubicin-treated mice; assay: Doxorubicin-treated mice: liver sections, body weight, plasma ASAT and Amylase; type: in vivo; settings: two doses Doxorubicin 10 mg/kg i.p., then 3×5 mg/kg, 14 d later
# Experimental: IMR90 cells were exposed twice to 0.5 μM Doxorubicin with one day in between. SA-β-GAL activity was determined 7 days later. […] Mice were i.p. injected with 10 mg/kg Doxorubicin and analyzed for RLUC on the indicated time-points. Changes in RLUC intensity for 5 animals are plotted for the indicated timepoints after injection. […] Mice treated as indicated in FIG. 4F were analyzed for Bioluminescence. […] Liver sections from the experiment in FIG. 4I were stained for IL-6. […] The ratio was plotted. […] Experiment as in FIG. 4H. n=3 animals per group.
# [2] = system: LOX-IMVI; assay: Viability of LOX-IMVI metastatic melanoma cells; type: cell-based, human; settings: for LOX-IMVI viability, combination with RAF/MEK inhibitors: FOXO4 DRI combined with Vemurafenib, Dabrafenib or Trametinib
# Experimental: Assay as in FIG. 2C with increasing doses of Vemurafenib. […] LOX-IMVI however is resistant. […] Experiment as in FIG. 2C, but with LOX-IMVI treated with FOXO4 DRI alone, the BRAF^V600E-inhitors Vemurafenib or Dabrafenib, or the MEK inhibitor Trametinib alone, or a combination hereof. […] LOX-IMVI cells were incubated with FOXO4 DRI or Vemurafenib alone or in combination. The cells were co-treated with the pan-caspase inhibitor QVD-OPH to block caspase-dependent cell death. After 3 days the media was refreshed with new QVD-OPH containing media, but in the absence of FOXO4 DRI or Vemurafenib. At day 5 after initial treatment the cells were fixed and stained for Cytochrome C. Cytochrome C is present in the mitochondria in viable cells and is released into the cytosol when apoptosis is activated. Plotted are the number of cells showing release of Cytochrome C. […] Experiment as in FIG. 2D with LOX-IMVI treated with Vemurafenib or FOXO4 DRI alone or their combination. […] Experiment as in FIG. 2D using intermediately sensitive A375, pretreated with one doze of Vemurafenib. The surviving cells and the parental, non-exposed cells were compared for viability after a new round of Vemurafenib. […] Thus, similar to what is seen in the clinic (see papers from Bernard's lab Nature, 2014), therapy resistance can be mimicked in this set-up. […] In the clinic RAF inhibitors are frequently followed up on with MEK inhibitors. […] After 6 days however surface-bound IL1α appeared indicative of an active SASP. […] Parental A375, Vemurafenib resistant A375 (survivors of 3 wks chronic Vemurafenib exposure) and intrinsically resistant LOX-IMVI were treated with Vemurafenib or FOXO4 DRI alone or in combination. […] LOX-IMVI were assessed for viability in the presence of FOXO4 DRI, the oxidative stress inhibitor N-Acetyl Cysteine (NAC) or the oxidative stressor H2O2. […] 3D melanoma organoid cultures (melanoids) were generated as described (Kruiswijk et al, Oncogene, 2015) and treated as in FIG. 5F for viability (M) or stained for Apoptosis using TUNEL (N) according to the manufacturer's protocol (Roche).
# The sensitivity of the three human metastatic melanoma cell lines, Malme-3M, A375 and LOX-IMVI to increasing doses of Vemurafenib and Trametinib was established. LOX-IMVI cells express high levels of FOXO4 under basal conditions. The experiment was performed as described in Example 1, namely by AqueousOne MTT assay according to the manufacturer's instructions.
# LOX-IMVI cells were plated for (i) cell viability assay as in example 1 by AqueousOne MTT assay, (ii) apoptosis by Cytochrome C release, (iii) longitudinal cell density assay, and incubated with the FOXO4 DRI peptide, Vemurafenib/Trametinib, or their combination, respectively. With regard to the apoptosis by Cytochrome C release experiment, 20.000 LOX-IMVI cells were plated on glass coverslips in 24-well plate wells. The next day these were incubated with PBS (Mock) or 50 uM of the FOXO4 in combination with PBS, 2 uM Vemurafenib or 10 nM Trametinib in the presence of 20 nM of the caspase-inhibitor QVD-OPH to prevent caspase-mediated death. The cells were refreshed after two days with new media containing 20 nM QVD-OPH and three days later the cells were fixed and processed for immunofluorescence-detection of Cytochrome C. Dying cells, which were prevented to detach from the coverslips due to the caspase inhibitor show release of Cytochrome C from mitochondria to the cytosol or even complete absence of Cytochrome C, while viable cells show mitochondrial staining only. The % of cells with Cytochrome C release was scored.
substance,measurement,setting,value
[dL][dT][dL][dR][dK][dE][dP][dA][dS][dE][dI][dA][dQ][dS][dI][dL][dE][dA][dY][dS][dQ][dN]G[dW][dA][dN][dR][dR][dS]GG[dK][dR][dP][dP][dP][dR][dR][dR][dQ][dR][dR][dK][dK][dR]G [FOXO4 DRI],IL-6 expression in liver sections,[1],reduces IL-6 expression after Doxorubicin-treatment in vivo
same,killing of melanoma cells,[2]; FOXO4 DRI alone,but not LOX-IMVI
same,"LOX-IMVI viability, combination with RAF/MEK inhibitors",[2],shows synthetic lethality with RAF/MEK inhibitors in therapy resistant LOX-IMVI
same,"LOX-IMVI viability, combination with RAF/MEK inhibitors",[2]; listed as FOXO4 DRI peptide,strongly enhances the ability of Vemurafenib and Trametinib to kill therapy-resistant LOX-IMVI melanoma cells
same,"LOX-IMVI viability, individually",[2]; FOXO4 DRI or H2O2 alone,only marginally influenced LOX-IMVI viability
same,"LOX-IMVI viability, FOXO4 DRI together with H2O2",[2]; combination,together they showed synthetic lethality
same,resensitization to Vemurafenib,"[2]; intrinsically resistant LOX-IMVI, combination",strongly resensitized these resistant lines to Vemurafenib
same,"LOX-IMVI viability, agent on its own",[2]; single agent,do not markedly affect LOX-IMVI viability
